Experimental data: PubChem BioAssay AID686938 (Drosophila RNAi Screening Center, 2013)

Screen: 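Looking for CRAC channel components and the factors controlling them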 (primary screen)
System: Drosophila S2R+ cells
Reagents: long dsRNA against Drosophila genes, about 0.25 µg dsRNA per well, roughly 10,000 cells
Timing: 5 days of knock-down before the calcium assay
Conditions: thapsigargin (SERCA pump blocker) to empty calcium stores; entry signal taken 4 min after adding it
Measured: 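Duplicate raw fluo-4 intensities per well from a plate reader, at rest and four minutes after thapsigargin emptied calcium stores; entry-to-rest ratio filled for only some wells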
Scale: calcium entry signal: higher = stronger calcium signal after store depletion; entry to resting ratio: higher = more calcium entry relative to resting level; resting calcium signal: higher = higher resting calcium signal
Rule for the call: 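Called when the plate z-score of the entry-to-rest ratio, mean of duplicates, falls below −3; wells with low overall dye signal (Fmax z below −2) or more than five off-targets excluded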
Meaning of the calls: active = strongly reduced calcium entry; inactive = no strong reduction
The screen tested about 23,000 reagents; below is a random part of those with a known target gene and a result. Over the whole deposit, 75 (0.33%) were called active. 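Raw plate signals without normalisation; calls rest on plate z-scores that were not deposited; ratio present for only 364 wells.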 Names joined by + are all predicted targets of the reagent. Not given: the dose of the treatment.

The opening 8 records, to show the layout:
Gene	amplicon	calcium entry signal, replicate 1 (fluorescence units)	calcium entry signal, replicate 2 (fluorescence units)	entry to resting ratio	resting calcium signal, replicate 1 (fluorescence units)	resting calcium signal, replicate 2 (fluorescence units)	outcome
RfC3 (Replication factor C subunit 3)	DRSC03411	3.23e7	3.74e7		1.82e7	1.85e7	inactive
CG42360	DRSC04224	4.02e7	4.27e7		2.11e7	2.11e7	inactive
Arpc3A (Actin-related protein 2/3 complex, subunit 3A)	DRSC15596	2.45e7	3.22e7		1.24e7	6.05e7	inactive
CG42570	DRSC09391	2.18e7	2.79e7		1.07e7	1.36e7	inactive
RpS14b (Ribosomal protein S14b)	DRSC18711	7.88e6	5.80e6		6.19e6	5.19e6	inactive
S6k (Ribosomal protein S6 kinase)	DRSC11276	2.87e7	3.67e7		1.31e7	1.49e7	inactive
CG4712	DRSC06882	2.56e7	4.29e7		1.38e7	1.73e7	inactive
CG42502 + CG10570	DRSC02071	4.22e7			1.94e7		inactive

The listing, from the first entry:
Gene	amplicon	calcium entry signal, replicate 1 (fluorescence units)	calcium entry signal, replicate 2 (fluorescence units)	entry to resting ratio	resting calcium signal, replicate 1 (fluorescence units)	resting calcium signal, replicate 2 (fluorescence units)	outcome
RfC3 (Replication factor C subunit 3)	DRSC03411	3.23e7	3.74e7		1.82e7	1.85e7	inactive
CG42360	DRSC04224	4.02e7	4.27e7		2.11e7	2.11e7	inactive
Arpc3A (Actin-related protein 2/3 complex, subunit 3A)	DRSC15596	2.45e7	3.22e7		1.24e7	6.05e7	inactive
CG42570	DRSC09391	2.18e7	2.79e7		1.07e7	1.36e7	inactive
RpS14b (Ribosomal protein S14b)	DRSC18711	7.88e6	5.80e6		6.19e6	5.19e6	inactive
S6k (Ribosomal protein S6 kinase)	DRSC11276	2.87e7	3.67e7		1.31e7	1.49e7	inactive
CG4712	DRSC06882	2.56e7	4.29e7		1.38e7	1.73e7	inactive
CG42502 + CG10570	DRSC02071	4.22e7			1.94e7		inactive
CG13067	DRSC09950	3.82e7	6.40e7		2.02e7	2.42e7	inactive
Ist1	DRSC09697	3.13e7	3.48e7		2.11e7	1.42e7	inactive
Ca-alpha1T (Ca[2+]-channel protein alpha[[1]] subunit T)	DRSC17842	3.39e7	3.96e7		1.59e7	1.72e7	inactive
Ca-alpha1T (Ca[2+]-channel protein alpha[[1]] subunit T)	DRSC18103	3.00e7	4.47e7		1.48e7	2.37e7	inactive
Ca-alpha1T (Ca[2+]-channel protein alpha[[1]] subunit T)	DRSC18356	3.30e7	4.04e7		1.66e7	1.93e7	inactive
Ca-alpha1T (Ca[2+]-channel protein alpha[[1]] subunit T)	DRSC18357	3.66e7	4.14e7		1.86e7	1.85e7	inactive
Ca-alpha1T (Ca[2+]-channel protein alpha[[1]] subunit T)	DRSC21430	4.02e7	3.09e7		2.17e7	1.53e7	inactive
CG8584	DRSC07217	4.18e7	4.56e7		1.98e7	1.91e7	inactive
eIF2Bepsilon (eukaryotic translation initiation factor 2B subunit epsilon)	DRSC18769	3.06e7	3.34e7		1.38e7	1.56e7	inactive
betaGlu (beta glucuronidase)	DRSC15419	3.95e7	4.07e7		1.77e7	1.85e7	inactive
CG7156	DRSC16207	4.36e7	4.03e7		2.12e7	1.82e7	inactive
Gnpat (Glyceronephosphate O-acyltransferase)	DRSC16960	2.99e7	4.45e7		1.54e7	1.95e7	inactive
CG10936	DRSC05669	3.74e7	5.25e7		1.86e7	2.45e7	inactive
CG10936	DRSC05670	3.92e7	5.00e7		1.72e7	2.70e7	inactive
CG10936	DRSC06018	4.77e7	4.92e7		2.28e7	2.35e7	inactive
jumu (jumeau)	DRSC16651	2.71e7	3.47e7		1.63e7	1.88e7	inactive
CG4660	DRSC18378	3.21e7	4.38e7		1.58e7	1.92e7	inactive
CG32985	DRSC02634	2.79e7	4.04e7		1.25e7	1.75e7	inactive
iPLA2-VIA (calcium-independent phospholipase A2 VIA)	DRSC10699	4.41e7	3.66e7		2.56e7	1.47e7	inactive
Cyp40 (Cyclophilin 40)	DRSC10980	5.19e7	4.22e7		3.32e7	1.77e7	inactive
fiz (fezzik)	DRSC20188	3.31e7	4.21e7		1.57e7	1.83e7	inactive
CG30472	DRSC22245	3.71e7	3.80e7		1.78e7	1.89e7	inactive
cic (capicua)	DRSC14276	2.39e7	2.74e7		1.46e7	1.68e7	inactive
cic (capicua)	DRSC15708	4.72e7	3.82e7		6.06e7	1.75e7	inactive
cic (capicua)	DRSC16918	3.44e7	3.69e7		4.70e7	1.53e7	inactive
cic (capicua)	DRSC21243	5.38e7	5.13e7		2.81e7	2.45e7	inactive
cic (capicua)	DRSC23217	3.50e7	4.23e7		1.70e7	2.02e7	inactive
Gcna (Germ cell nuclear acidic peptidase)	DRSC18553	2.38e7	3.20e7		1.20e7	1.62e7	inactive
Cp15 (Chorion protein 15)	DRSC11118	3.37e7	4.42e7		1.70e7	2.15e7	inactive
CG1529	DRSC20515	4.15e7	4.30e7		2.08e7	2.21e7	inactive
CG6180	DRSC02937	5.16e7			2.58e7		inactive
Calx (Na/Ca-exchange protein)	DRSC13457	5.98e7	3.84e7		2.50e7	1.59e7	inactive
Calx (Na/Ca-exchange protein)	DRSC13459	6.73e7	3.32e7		3.13e7	1.69e7	inactive
Calx (Na/Ca-exchange protein)	DRSC16599	4.16e7	4.25e7		5.27e7	1.73e7	inactive
Calx (Na/Ca-exchange protein)	DRSC21850	2.45e7	4.96e7		1.24e7	2.07e7	inactive
CG17618 (retired record) + CG45049	DRSC16163	4.90e7	6.23e7		2.15e7	2.73e7	inactive
CG17618 (retired record) + CG45049	DRSC22054	2.98e7	5.95e7		1.63e7	3.20e7	inactive
CG17618 (retired record) + CG45049	DRSC23175	5.50e7	3.04e7		2.58e7	1.32e7	inactive
CG43288	DRSC17314	5.43e7	3.83e7		2.41e7	1.73e7	inactive
CG33757	DRSC05159	2.69e7	3.66e7		1.40e7	1.73e7	inactive
CG5515	DRSC15825	4.36e7	3.14e7		2.09e7	1.51e7	inactive
Arpc5 (Actin-related protein 2/3 complex, subunit 5)	DRSC00730	3.44e7	3.83e7		1.77e7	1.90e7	inactive
CG15136	DRSC02436	3.54e7	2.44e7		1.61e7	1.21e7	inactive
Trf (TBP-related factor)	DRSC03462	3.31e7	4.64e7		1.59e7	2.11e7	inactive
Nplp4 (Neuropeptide-like precursor 4)	DRSC00391	2.55e7	2.29e7		1.21e7	9.74e6	inactive
Hsl (Hormone-sensitive lipase)	DRSC06028	4.35e7	3.56e7		1.92e7	1.82e7	inactive
CG3598	DRSC18471	4.45e7	5.35e7	2.2	2.02e7	2.10e7	inactive
bora (aurora borealis)	DRSC10744	3.44e7	5.04e7		1.67e7	3.35e7	inactive
CG14253	DRSC14748	3.15e7	5.09e7		1.64e7	2.07e7	inactive
sgg (shaggy)	DRSC17228	4.86e7	4.85e7		2.49e7	2.19e7	inactive
sgg (shaggy)	DRSC17722	5.27e7	4.91e7		2.77e7	2.16e7	inactive
sgg (shaggy)	DRSC18832	3.68e7	5.89e7	1.9	1.93e7	2.27e7	inactive
Cyp312a1 (Cytochrome P450 312a1)	DRSC11128	3.63e7	6.31e7		1.77e7	2.39e7	inactive
CG8818	DRSC07275	4.05e7	4.24e7		1.74e7	2.01e7	inactive
Sox102F	DRSC17204	3.72e7	4.29e7		1.77e7	1.88e7	inactive
CG14137	DRSC10142	3.10e7	3.40e7		1.71e7	1.52e7	inactive
CG14300	DRSC14779	3.28e7	3.77e7		6.18e7	1.57e7	inactive
CG7906	DRSC10928	2.50e7	3.18e7		1.15e7	2.34e7	inactive
Usp1 (Ubiquitin specific protease 1)	DRSC14155	2.47e7	3.00e7		1.10e7	1.38e7	inactive
CG4815	DRSC15653	2.84e7	4.92e7		1.56e7	2.31e7	inactive
CG30431	DRSC04902	3.80e7			1.87e7		inactive
CG30431	DRSC04904	4.48e7	4.51e7		2.12e7	2.24e7	inactive
CG18343	DRSC06726	1.66e7	3.42e7		9.22e6	1.44e7	inactive
asRNA:CR42743 + CG34162	DRSC01190	3.48e7	4.32e7		1.85e7	1.91e7	inactive
AsnRS-m (Asparaginyl-tRNA synthetase, mitochondrial)	DRSC07010	3.71e7	4.13e7		1.56e7	1.70e7	inactive
Neos (Neosin)	DRSC11235	4.25e7	2.71e7		2.83e7	1.17e7	inactive
CG17129	DRSC08508	4.39e7	3.87e7		2.19e7	1.85e7	inactive
